Read-outs that look alike come from different tables or passages of the source. No constants are given. Whether binding was seen depends on the method and setting. In cells and extracts the contact can be indirect. Some binding calls cover weakened binding; strength is not graded here.

By UniProt entry, the sequences of proteins in these tests, tags left out. Residues count along the entry.
UniProt P35441, residues 19-1170: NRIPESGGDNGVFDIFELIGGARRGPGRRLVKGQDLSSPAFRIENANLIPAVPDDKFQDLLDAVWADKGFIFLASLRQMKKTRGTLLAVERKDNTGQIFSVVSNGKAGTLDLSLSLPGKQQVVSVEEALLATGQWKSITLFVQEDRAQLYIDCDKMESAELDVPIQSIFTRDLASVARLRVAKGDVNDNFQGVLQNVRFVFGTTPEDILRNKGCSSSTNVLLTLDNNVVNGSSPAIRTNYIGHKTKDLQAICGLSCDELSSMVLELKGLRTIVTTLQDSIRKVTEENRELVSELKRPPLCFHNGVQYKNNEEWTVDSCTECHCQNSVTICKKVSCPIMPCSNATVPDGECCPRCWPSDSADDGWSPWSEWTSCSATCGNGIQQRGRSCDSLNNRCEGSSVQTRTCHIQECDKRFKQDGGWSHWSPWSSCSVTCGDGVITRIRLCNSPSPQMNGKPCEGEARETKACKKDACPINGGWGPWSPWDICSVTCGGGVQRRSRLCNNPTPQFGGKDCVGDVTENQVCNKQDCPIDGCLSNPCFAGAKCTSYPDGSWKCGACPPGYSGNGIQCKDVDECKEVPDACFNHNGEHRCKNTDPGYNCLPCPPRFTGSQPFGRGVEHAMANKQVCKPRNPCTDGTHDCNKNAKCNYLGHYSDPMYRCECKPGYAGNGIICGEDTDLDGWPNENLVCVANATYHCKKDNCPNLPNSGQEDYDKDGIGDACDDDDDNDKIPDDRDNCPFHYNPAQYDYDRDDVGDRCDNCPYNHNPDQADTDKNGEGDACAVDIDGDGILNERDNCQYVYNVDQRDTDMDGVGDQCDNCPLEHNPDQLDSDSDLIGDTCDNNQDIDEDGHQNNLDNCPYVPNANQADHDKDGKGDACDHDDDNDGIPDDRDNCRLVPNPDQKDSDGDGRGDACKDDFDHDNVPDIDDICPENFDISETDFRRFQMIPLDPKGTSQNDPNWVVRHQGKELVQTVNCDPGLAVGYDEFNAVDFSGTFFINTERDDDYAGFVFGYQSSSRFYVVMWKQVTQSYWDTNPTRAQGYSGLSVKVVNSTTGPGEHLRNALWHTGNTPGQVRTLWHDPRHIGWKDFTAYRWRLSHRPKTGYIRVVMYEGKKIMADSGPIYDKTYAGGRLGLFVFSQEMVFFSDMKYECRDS
UniProt P09055, residues 21-798: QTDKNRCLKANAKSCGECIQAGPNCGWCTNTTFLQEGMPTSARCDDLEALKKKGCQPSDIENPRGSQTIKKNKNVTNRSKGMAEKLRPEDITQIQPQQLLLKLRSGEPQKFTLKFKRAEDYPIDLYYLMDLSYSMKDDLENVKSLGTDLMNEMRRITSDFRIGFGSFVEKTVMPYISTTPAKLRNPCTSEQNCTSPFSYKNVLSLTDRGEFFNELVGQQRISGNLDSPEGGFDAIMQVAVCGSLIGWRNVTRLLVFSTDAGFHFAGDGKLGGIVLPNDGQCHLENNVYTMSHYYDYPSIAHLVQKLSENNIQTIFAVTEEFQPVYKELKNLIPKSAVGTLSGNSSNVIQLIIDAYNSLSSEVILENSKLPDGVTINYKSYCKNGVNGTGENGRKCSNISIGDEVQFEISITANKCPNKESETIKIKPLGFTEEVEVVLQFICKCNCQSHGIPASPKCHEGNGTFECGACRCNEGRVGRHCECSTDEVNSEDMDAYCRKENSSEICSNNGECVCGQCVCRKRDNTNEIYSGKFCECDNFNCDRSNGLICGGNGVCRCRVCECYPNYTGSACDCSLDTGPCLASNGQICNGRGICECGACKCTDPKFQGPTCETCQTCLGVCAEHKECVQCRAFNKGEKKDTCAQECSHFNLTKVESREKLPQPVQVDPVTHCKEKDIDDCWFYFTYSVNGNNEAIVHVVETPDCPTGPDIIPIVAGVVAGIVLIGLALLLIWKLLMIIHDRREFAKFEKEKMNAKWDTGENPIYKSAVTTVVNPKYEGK

For assay [1], the target named is thrombospondin-1 (Thbs1), mouse (mouse (endogenous in C57BL/6J arteries)) (UniProt P35441). The assay is described as follows: proximity ligation.
Assay [2] shares this target. As to the kind of experiment: proximity ligation. This is another data set of the same source.

In the case of “integrin β1, mouse (from UniProt P09055 21-798) (receptor)”, the binding result in assay [1] and in assay [2] was “binds” each time.

For the origin of these results see publication doi:10.1101/814533.
